Test [1] has as its target T1, γ-type carbonic anhydrase subunit γCA2 of complex I (Arabidopsis thaliana (endogenous in cell suspension culture)) (UniProt Q9C6B3).
T1 sequence: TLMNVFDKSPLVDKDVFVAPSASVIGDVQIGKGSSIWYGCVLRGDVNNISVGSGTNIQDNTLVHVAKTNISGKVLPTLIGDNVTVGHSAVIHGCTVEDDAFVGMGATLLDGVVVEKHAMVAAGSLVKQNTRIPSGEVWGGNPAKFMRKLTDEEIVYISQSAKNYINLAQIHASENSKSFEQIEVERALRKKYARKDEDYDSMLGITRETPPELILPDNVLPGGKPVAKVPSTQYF
In words: cryo-EM structure; native I + III2 supercomplex isolated from digitonin-solubilised Arabidopsis mitochondria (sucrose gradient, Superose 6 in GDN); 30 mM Tris-HCl pH 7.4, 60 mM NaCl, 0.02% GDN; 2.36 Å for the whole supercomplex, 2.03 Å after multibody refinement, 1.9 Å after density modification; both purified.

For test [2], the target named is T2, γ-type carbonic anhydrase-like subunit γCAL2 of complex I (Arabidopsis thaliana (endogenous in cell suspension culture)) (UniProt Q9SMN1).
T2 sequence: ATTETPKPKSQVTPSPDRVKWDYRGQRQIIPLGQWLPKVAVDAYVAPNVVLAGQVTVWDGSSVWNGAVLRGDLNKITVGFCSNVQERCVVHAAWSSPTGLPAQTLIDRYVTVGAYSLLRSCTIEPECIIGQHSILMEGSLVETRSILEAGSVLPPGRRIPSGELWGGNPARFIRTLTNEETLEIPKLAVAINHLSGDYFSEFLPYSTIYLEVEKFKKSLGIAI
The description is as above.

Here are results for two molecules from publication PMC9873573, “Cryo-EM structure of the respiratory I + III2 supercomplex from Arabidopsis thaliana at 2 Å resolution” (Nature Plants, 2022).

These are yes or no findings as the source states them, for the method shown. Some binding calls cover weakened binding; strength is not graded here.

B1: γ-type carbonic anhydrase subunit γCA1 of complex I (protein, UniProt Q9FWR5 44-275)
chain: TLMNVFDKAPIVDKEAFVAPSASVIGDVHIGRGSSIWYGCVLRGDVNTVSVGSGTNIQDNSLVHVAKSNLSGKVHPTIIGDNVTIGHSAVLHGCTVEDETFIGMGATLLDGVVVEKHGMVAAGALVRQNTRIPSGEVWGGNPARFLRKLTDEEIAFISQSATNYSNLAQAHAAENAKPLNVIEFEKVLRKKHALKDEEYDSMLGIVRETPPELNLPNNILPDKETKRPSNVN
Regarding B1, the binding result in test [1] and in test [2] was “binds” in each case.

B2: γ-type carbonic anhydrase subunit γCA2 of complex I (protein, UniProt Q9C6B3 44-278)
chain: TLMNVFDKSPLVDKDVFVAPSASVIGDVQIGKGSSIWYGCVLRGDVNNISVGSGTNIQDNTLVHVAKTNISGKVLPTLIGDNVTVGHSAVIHGCTVEDDAFVGMGATLLDGVVVEKHAMVAAGSLVKQNTRIPSGEVWGGNPAKFMRKLTDEEIVYISQSAKNYINLAQIHASENSKSFEQIEVERALRKKYARKDEDYDSMLGITRETPPELILPDNVLPGGKPVAKVPSTQYF
Consider B2, for which, in test [2], the binding result is on record as “binds”.
